One experiment has as its target T1, BirA*-Roquin-1 (UniProt Q4VGL6).
T1 sequence: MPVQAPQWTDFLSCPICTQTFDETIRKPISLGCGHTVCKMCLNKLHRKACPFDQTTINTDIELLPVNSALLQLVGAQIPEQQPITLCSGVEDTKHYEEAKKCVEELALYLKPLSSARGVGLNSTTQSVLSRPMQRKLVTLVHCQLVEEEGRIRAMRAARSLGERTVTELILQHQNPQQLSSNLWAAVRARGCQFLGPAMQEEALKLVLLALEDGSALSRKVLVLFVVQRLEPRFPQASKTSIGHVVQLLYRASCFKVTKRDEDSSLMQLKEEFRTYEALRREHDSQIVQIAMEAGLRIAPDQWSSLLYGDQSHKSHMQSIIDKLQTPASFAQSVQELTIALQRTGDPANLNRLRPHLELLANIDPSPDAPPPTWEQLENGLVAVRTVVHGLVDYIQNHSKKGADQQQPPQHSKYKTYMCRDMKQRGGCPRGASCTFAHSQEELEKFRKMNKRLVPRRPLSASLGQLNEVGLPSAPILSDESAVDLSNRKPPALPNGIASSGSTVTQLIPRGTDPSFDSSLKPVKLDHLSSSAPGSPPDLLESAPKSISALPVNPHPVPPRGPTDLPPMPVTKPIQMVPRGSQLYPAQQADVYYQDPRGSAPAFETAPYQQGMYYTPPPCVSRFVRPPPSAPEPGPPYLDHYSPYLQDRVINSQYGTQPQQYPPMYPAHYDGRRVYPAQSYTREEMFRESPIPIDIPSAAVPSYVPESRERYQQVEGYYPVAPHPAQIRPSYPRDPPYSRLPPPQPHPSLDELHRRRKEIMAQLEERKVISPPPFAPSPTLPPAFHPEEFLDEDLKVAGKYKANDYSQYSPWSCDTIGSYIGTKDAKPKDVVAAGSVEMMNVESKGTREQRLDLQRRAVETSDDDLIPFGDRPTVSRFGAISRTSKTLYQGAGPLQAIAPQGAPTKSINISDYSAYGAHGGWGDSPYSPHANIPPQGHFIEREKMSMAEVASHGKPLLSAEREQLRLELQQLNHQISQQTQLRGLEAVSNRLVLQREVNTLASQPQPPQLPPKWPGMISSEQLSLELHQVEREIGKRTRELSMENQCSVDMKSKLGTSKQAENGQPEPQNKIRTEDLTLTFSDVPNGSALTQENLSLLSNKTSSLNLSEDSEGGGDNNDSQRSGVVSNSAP
The experiment is described as follows: proximity labelling.

Another experiment has as its target T2, Myc-BirA*-Roquin-1 (UniProt Q4VGL6).
T2 sequence: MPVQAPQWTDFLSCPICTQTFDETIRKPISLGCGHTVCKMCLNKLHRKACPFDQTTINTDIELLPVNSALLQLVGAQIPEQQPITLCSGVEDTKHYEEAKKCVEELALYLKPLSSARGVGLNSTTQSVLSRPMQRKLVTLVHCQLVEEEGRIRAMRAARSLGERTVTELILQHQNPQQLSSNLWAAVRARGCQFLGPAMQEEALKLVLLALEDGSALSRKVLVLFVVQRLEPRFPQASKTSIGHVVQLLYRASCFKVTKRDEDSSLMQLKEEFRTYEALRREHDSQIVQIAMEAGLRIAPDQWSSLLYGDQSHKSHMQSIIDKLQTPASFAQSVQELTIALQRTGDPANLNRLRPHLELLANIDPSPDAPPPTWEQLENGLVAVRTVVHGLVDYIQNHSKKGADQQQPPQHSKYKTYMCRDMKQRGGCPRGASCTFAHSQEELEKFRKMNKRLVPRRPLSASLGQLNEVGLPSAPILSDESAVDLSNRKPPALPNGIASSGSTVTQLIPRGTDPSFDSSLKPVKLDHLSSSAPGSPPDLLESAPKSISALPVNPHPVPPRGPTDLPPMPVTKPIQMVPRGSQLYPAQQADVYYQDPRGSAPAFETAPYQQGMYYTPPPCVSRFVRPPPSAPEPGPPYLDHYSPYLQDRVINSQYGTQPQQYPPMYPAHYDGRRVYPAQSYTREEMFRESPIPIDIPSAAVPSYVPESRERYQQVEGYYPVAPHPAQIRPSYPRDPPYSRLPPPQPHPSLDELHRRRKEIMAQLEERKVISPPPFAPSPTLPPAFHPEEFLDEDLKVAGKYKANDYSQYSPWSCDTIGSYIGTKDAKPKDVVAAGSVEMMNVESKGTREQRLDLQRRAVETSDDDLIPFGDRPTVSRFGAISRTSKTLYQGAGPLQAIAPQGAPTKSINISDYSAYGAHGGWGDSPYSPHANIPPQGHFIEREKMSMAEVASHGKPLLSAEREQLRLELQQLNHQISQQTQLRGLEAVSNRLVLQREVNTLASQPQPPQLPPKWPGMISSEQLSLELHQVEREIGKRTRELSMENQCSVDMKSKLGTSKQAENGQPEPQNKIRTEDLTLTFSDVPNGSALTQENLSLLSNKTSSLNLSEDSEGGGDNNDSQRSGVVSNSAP
The experiment is described as follows: proximity labelling.

These are yes or no findings as the source states them, for the method shown. Binding seen in cells or lysates may run through a third protein. These calls come from enrichment with a bait or labelling near it, and not all partners need be listed. For part of these data: Where a sequence is shown, tags or fusion partners need not be part of it.

B1: Nufip2 (protein, UniProt Q5F2E7 1-692)
chain: MEEKPGQPQPQHHHSHHHPHHHPQQQQQQQSHHHHHYYFYNHSHNHHHHHHHQQPHQYLQHGAEGSPKAQPKPLKHEQKHTLQQHQETPKKKTGYGEINGNAGEREISLKSLSSDEATNPISRVLNGNQQVVETSLKQTVKTSTFGKAGIKTKNFIQKNSMDKKNGKSYENKSGETQAVDKTDTIAIPNGVITSSSGYITNGYMSKGADNDGSGSESGYTTPKKRKARRNSAKGCENLNLVQDKIMQETSVPALKQGLETLKPDYSEQKGMRVDGSKPIWKYETGPGGTSRGKPAMGDVLRKSSDIKPGLSSKKFDDRPKGKHASAAASKEDSWTLFKPPPVFPVDNSSAKIVPKISYASKVKENLNKTVQNSSVSPSSSSSSSSTGETQTQSSSRLSQVPMSALKSVTSASFSNGPVLAGTDGSVYPSGGQPLLTTAANTLTPISTGTDSVLQDMSLASAAVEQIKSSLFIYPSNMQTVLLSAQVDLPSQTDQQNLGDIFQNQWGLSFINEPSAGPETVIGKSSDHKVMEVTFQGEYPATLVSQGAEIIPSGTEHPVFPKAYELEKRTSPQVLGHILKPGTTESGALSLDPSHIGDLQKADTSSQGALVFLSKDYEIENQNPLASPTNTLLGSAKEQRYQRGLERNDSWGSFDLRAAIVYHTKEMESIWNLQKQDPKRIITYNEAMDSPDQ
As to B1, the binding result in the experiment with BirA*-Roquin-1 and with Myc-BirA*-Roquin-1 was “binds” each time.

B2: Roquin-2 (protein, UniProt P0C090 1-1187)
chain: MPVQAAQWTEFLSCPICYNEFDENVHKPISLGCSHTVCKTCLNKLHRKACPFDQTAINTDIDVLPVNFALLQLVGAQVPDHQSIKLSNLGENKHYEVAKKCVEDLALYLKPLSGGKGVASLNQSALSRPMQRKLVTLVNCQLVEEEGRVRAMRAARSLGERTVTELILQHQNPQQLSANLWAAVRARGCQFLGPAMQEEALKLVLLALEDGSALSRKVLVLFVVQRLEPRFPQASKTSIGHVVQLLYRASCFKVTKRDEDSSLMQLKEEFRSYEALRREHDAQIVHIAMEAGLRISPEQWSSLLYGDLAHKSHMQSIIDKLQSPESFAKSVQELTIVLQRTGDPANLNRLRPHLELLANIDPNPDAVSPTWEQLENAMVAVKTVVHGLVDFIQNYSRKGHETPQPQPNSKYKTSMCRDLRQQGGCPRGTNCTFAHSQEELEKYRLRNKKMSATVRTFPLLNKVGVNSTVTTTAGNVISVIGSTETTGKIVASTNGISNTESSVSQLIPRGTDSAVRTLETVKKVGKVGTNAQNAGPSAESVSENKIGSPPKTPVSNAAATSAGPSNFGTELNSLPPKSSPFLTRVPVYPQHSESIQYFQDPRTQIPFEVPQYPQTGYYPPPPTVPAGVTPCVPRFVRSSNVPESSLPPASMPYADHYSTFSPRDRMNSSPYQPPPPQQYGPVPPVPSGMYAPVYDSRRIWRPAMYQRDDIIRSNSLPPMDVMHSSVYQTSLRERYNSLDGYYSVACQPPNDPRTTVPLPREPCGHLKTSCEEQLRRKPDQWTQYHTQKTPVSSTLPVATQSPTPPSPLFSVDFRSDFSESVSGAKFEEDHLSHYSPWSCGTIGSCINAIDSEPKDVIANSNAVLMDLDSGDVKRRVHLFEAQRRTKEEDPIIPFSDGPIISKWGAISRSSRTGYHTTDPVQATASQGSATKPISVSDYVPYVNAVDSRWSSYGNDATSSAHYIERDRFIVTDLSGHRKHSSTGDLLSIELQQAKSNSLLLQREANALAMQQKWNSLDEGRHLTLNLLSKEIELRNGENDYTEDTVDTKPDRDIELELSALDTDEPDGQSEQIEEILDIQLGISSQNDQLLNGTAVENGHPAQQHQKDPGKPKRQSLGEDHVILEEQKPILPVTSCFSQPRPMSISSASCLPITTSVSVGNLILKTHVMSEDKNDFLKPIANGKMVNS
Regarding B2, the binding entry in the experiment with BirA*-Roquin-1 was “binds”.
